Single values of this set are uncertain.
B1: Rpb7; numbered along this chain (parent)
chain: MFFIKDLSLNITLHPSFFGPRMKQYLKTKLLEEVEGSCTGKFGYILCVLDYDNIDIQRGRILPTDGSAEFNVKYRAVVFKPFKGEVVDGTVVSCSQHGFEVQVGPMKVFVTKHLMPQDLTFNAGSNPPSYQSSEDVITIKSRIRVKIEGCISQVSSIHAIGSIKEDYLGAI

What was measured:
[1] = variants of: B1; test: log2 fold change of mutant abundance, UV-irradiated vs unirradiated; higher = more UV resistant (enriched after UV); settings: with Saccharomyces cerevisiae rad7Δ rad26Δ; UV dose (J/m2): 10; genetic background: rad7Δ rad26Δ rpb7Δ + plasmid RPB7 library; outgrowth: 10 cell divisions
[2] = variants of: B1; test: NOISeq theta enrichment statistic, UV-irradiated vs unirradiated (dimensionless); higher = more UV resistant (enriched after UV); settings: with Saccharomyces cerevisiae rad7Δ rad26Δ; UV dose (J/m2): 10; genetic background: rad7Δ rad26Δ rpb7Δ + plasmid RPB7 library; outgrowth: 10 cell divisions

Row | Variant | log2 fold change of mutant abundance [1] | NOISeq theta enrichment statistic [2]
1 | G169S | -0.0281 | -0.0805
2 | G169E | -0.535 | -0.296
3 | G169V | -0.134 | -0.155
4 | G169C | -0.116 | -0.311
5 | G169Y | 1.58 | 0.639
6 | G169A | 0.0473 | 0.0566
7 | G169R | -0.113 | -0.16
8 | G169D | 0.126 | 0.346
9 | I163V | 0.191 | 0.546
10 | I163M | -0.0674 | -0.0712
11 | I163T | -0.121 | -0.218
12 | I163F | 0.135 | 0.309
13 | I163S | -0.203 | -0.212
14 | I163Y | -0.215 | -0.157
15 | I163L | 0.159 | 0.16
16 | I163N | -0.16 | -0.323
17 | Y167D | -0.141 | -0.177
18 | Y167S | -0.322 | -0.264
19 | Y167E | 1.06 | 0.544
20 | Y167C | -0.32 | -0.459
21 | Y167L | -0.287 | -0.224
22 | Y167F | 0.0656 | 0.123
23 | Y167I | -0.547 | -0.426
24 | Y167H | -0.16 | -0.288

An excerpt of these results, in CSV form:
Row,Variant,log2 fold change of mutant abundance [1],NOISeq theta enrichment statistic [2]
16,I163N,-0.16,-0.323
21,Y167L,-0.287,-0.224

(continued)

Row | Variant | log2 fold change of mutant abundance [1] | NOISeq theta enrichment statistic [2]
25 | Y167N | -0.308 | -0.464
26 | Y167K | -0.808 | -0.346
27 | G161D | 0.106 | 0.155
28 | G161A | 0.299 | 0.384
29 | G161C | -0.00641 | -0.0126
30 | G161R | 0.163 | 0.152
31 | G161V | 0.41 | 0.372
32 | G161S | 0.182 | 0.364
33 | I171L | 0.013 | 0.0113
34 | I171Y | 0.809 | 0.519
35 | I171K | 0.696 | 0.326
36 | I171S | 0.159 | 0.194
37 | I171F | 0.0101 | 0.0243
38 | I171T | -0.101 | -0.194
39 | I171V | -0.0587 | -0.198
40 | I171N | -0.196 | -0.39
41 | I171M | -0.0922 | -0.143
42 | A170E | -1.23 | -0.649
43 | A170V | -0.0667 | -0.223
44 | A170T | -0.152 | -0.406
45 | A170G | 0.128 | 0.199
46 | A170N | 0.971 | 0.493
47 | A170S | -0.149 | -0.232
48 | A170P | -0.143 | -0.174

Row | Variant | log2 fold change of mutant abundance [1] | NOISeq theta enrichment statistic [2]
49 | A170D | -0.133 | -0.322
50 | H158Y | -0.229 | -0.584
51 | H158K | -0.376 | -0.185
52 | H158I | 0.0963 | 0.0588
53 | H158S | 0.084 | 0.0568
54 | H158C | -0.264 | -0.142
55 | H158D | -0.664 | -0.711
56 | H158N | -0.227 | -0.576
57 | H158P | 0.111 | 0.15
58 | H158R | -0.377 | -1.05
59 | H158L | -0.322 | -0.847
60 | H158T | -0.518 | -0.317
61 | H158Q | -0.394 | -0.785
62 | L168F | 0.0721 | 0.102
63 | L168I | -1.23 | -0.685
64 | L168Q | -0.37 | -0.152
65 | L168R | 0.225 | 0.175
66 | L168V | -0.165 | -0.311
67 | L168Y | -1.04 | -0.614
68 | L168G | -0.681 | -0.24
69 | L168S | 0.102 | 0.195
70 | L168W | 0.0887 | 0.122
71 | L168M | -0.0389 | -0.116
72 | K164N | -0.172 | -0.414

Row | Variant | log2 fold change of mutant abundance [1] | NOISeq theta enrichment statistic [2]
73 | K164S | 0.749 | 0.358
74 | K164Y | 0.547 | 0.395
75 | K164T | 0.277 | 0.487
76 | K164D | -0.257 | -0.134
77 | K164I | 0.0154 | 0.0393
78 | K164G | -1.33 | -0.576
79 | K164M | 0.322 | 0.109
80 | K164Q | -0.023 | -0.0432
81 | K164V | -0.504 | -0.217
82 | K164E | 0.00882 | 0.02
83 | K164L | 1.04 | 0.52
84 | K164R | 0.0646 | 0.24
85 | E165Q | -0.144 | -0.154
86 | E165V | -0.126 | -0.192
87 | E165R | 0.0386 | 0.0231
88 | E165A | -0.0873 | -0.0757
89 | E165G | -0.637 | -0.943
90 | E165K | -0.492 | -0.481
91 | E165D | 0.0518 | 0.149
92 | I160F | 0.0288 | 0.0811
93 | I160H | 0.381 | 0.173
94 | I160S | 0.154 | 0.184
95 | I160M | -0.123 | -0.139
96 | I160L | -0.129 | -0.184

Row | Variant | log2 fold change of mutant abundance [1] | NOISeq theta enrichment statistic [2]
97 | I160T | 0.184 | 0.35
98 | I160N | 0.302 | 0.551
99 | I160V | -0.259 | -0.839
100 | I160Y | -0.189 | -0.139
101 | A159S | -0.0288 | -0.0537
102 | A159D | 0.00747 | 0.00505
103 | A159I | -0.72 | -0.379
104 | A159T | 0.144 | 0.608
105 | A159G | -0.266 | -0.33
106 | A159V | 0.326 | 0.687
107 | A159P | -0.0361 | -0.0321
108 | A159R | 0.0801 | 0.0661
109 | A159E | 0.239 | 0.349
110 | S162T | -0.328 | -0.332
111 | S162G | 0.0683 | 0.166
112 | S162K | 0.104 | 0.0903
113 | S162N | -0.0403 | -0.0894
114 | S162W | 0.11 | 0.11
115 | S162R | -0.299 | -0.655
116 | S162I | 0.111 | 0.141
117 | S162C | -0.0699 | -0.157
118 | S156Y | -0.219 | -0.399
119 | I157M | -0.0853 | -0.139
120 | I157S | 0.208 | 0.341

Given tab-delimited: entries from further up.
Row	Variant	log2 fold change of mutant abundance [1]	NOISeq theta enrichment statistic [2]
48	A170P	-0.143	-0.174
49	A170D	-0.133	-0.322
50	H158Y	-0.229	-0.584
51	H158K	-0.376	-0.185
52	H158I	0.0963	0.0588
53	H158S	0.084	0.0568
54	H158C	-0.264	-0.142
55	H158D	-0.664	-0.711
56	H158N	-0.227	-0.576
57	H158P	0.111	0.15
58	H158R	-0.377	-1.05
59	H158L	-0.322	-0.847
60	H158T	-0.518	-0.317
61	H158Q	-0.394	-0.785
62	L168F	0.0721	0.102
63	L168I	-1.23	-0.685
64	L168Q	-0.37	-0.152
65	L168R	0.225	0.175
66	L168V	-0.165	-0.311
67	L168Y	-1.04	-0.614
68	L168G	-0.681	-0.24
69	L168S	0.102	0.195
70	L168W	0.0887	0.122
71	L168M	-0.0389	-0.116
72	K164N	-0.172	-0.414
73	K164S	0.749	0.358
74	K164Y	0.547	0.395

Continuation.

Row | Variant | log2 fold change of mutant abundance [1] | NOISeq theta enrichment statistic [2]
121 | I157T | -0.0363 | -0.0984
122 | I157V | 0.241 | 0.804
123 | I157Y | -0.0665 | -0.0495
124 | I157N | 0.00138 | 0.00431
125 | I157D | 0.244 | 0.13
126 | I157F | -0.549 | -1.1
127 | I157L | -0.198 | -0.249
128 | I157K | 0.187 | 0.096
129 | I157R | 0.227 | 0.127
130 | D166Y | -0.196 | -0.293
131 | D166R | 0.112 | 0.0636
132 | D166K | -0.151 | -0.102
133 | D166G | -0.374 | -0.402
134 | D166V | -0.114 | -0.249
135 | D166N | -0.199 | -0.214
136 | D166A | -0.286 | -0.235
137 | D166H | -0.544 | -0.448
138 | D166E | -0.318 | -0.626
139 | unchanged | 0.0854 | 0.353

Source: the supplement of paper PMC10382679
